Assay [1] has as its target T1, Venus-XLG2^E293K (Arabidopsis thaliana) (UniProt C6KIE6).
T1 sequence: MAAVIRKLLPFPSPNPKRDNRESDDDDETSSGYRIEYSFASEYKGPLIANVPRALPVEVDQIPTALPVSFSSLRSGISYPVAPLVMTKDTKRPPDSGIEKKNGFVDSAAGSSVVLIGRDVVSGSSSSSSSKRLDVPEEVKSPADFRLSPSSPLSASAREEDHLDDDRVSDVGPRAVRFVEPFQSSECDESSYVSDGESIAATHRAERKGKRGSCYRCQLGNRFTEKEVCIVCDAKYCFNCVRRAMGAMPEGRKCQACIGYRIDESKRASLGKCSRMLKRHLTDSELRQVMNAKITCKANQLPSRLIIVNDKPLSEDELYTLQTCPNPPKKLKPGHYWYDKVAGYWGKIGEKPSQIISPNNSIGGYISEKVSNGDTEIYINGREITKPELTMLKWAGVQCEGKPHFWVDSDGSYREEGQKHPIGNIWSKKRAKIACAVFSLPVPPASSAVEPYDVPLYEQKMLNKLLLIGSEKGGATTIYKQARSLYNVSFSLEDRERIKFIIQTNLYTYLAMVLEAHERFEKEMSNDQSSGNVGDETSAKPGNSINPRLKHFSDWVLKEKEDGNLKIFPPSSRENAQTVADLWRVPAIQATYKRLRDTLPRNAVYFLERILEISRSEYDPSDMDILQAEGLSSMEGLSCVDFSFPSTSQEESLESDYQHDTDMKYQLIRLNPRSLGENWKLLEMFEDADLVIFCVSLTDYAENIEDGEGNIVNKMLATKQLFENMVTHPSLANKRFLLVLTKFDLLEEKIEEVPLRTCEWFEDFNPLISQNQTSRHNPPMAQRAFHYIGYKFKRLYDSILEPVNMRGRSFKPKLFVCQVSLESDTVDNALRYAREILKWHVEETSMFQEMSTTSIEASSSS
As to the kind of experiment: affinity purification with mass spectrometry.

For assay [2], the target named is T2, Venus-XLG2 (EXTRA LARGE G-PROTEIN 2, wild type) (Arabidopsis thaliana) (UniProt C6KIE6).
T2 sequence: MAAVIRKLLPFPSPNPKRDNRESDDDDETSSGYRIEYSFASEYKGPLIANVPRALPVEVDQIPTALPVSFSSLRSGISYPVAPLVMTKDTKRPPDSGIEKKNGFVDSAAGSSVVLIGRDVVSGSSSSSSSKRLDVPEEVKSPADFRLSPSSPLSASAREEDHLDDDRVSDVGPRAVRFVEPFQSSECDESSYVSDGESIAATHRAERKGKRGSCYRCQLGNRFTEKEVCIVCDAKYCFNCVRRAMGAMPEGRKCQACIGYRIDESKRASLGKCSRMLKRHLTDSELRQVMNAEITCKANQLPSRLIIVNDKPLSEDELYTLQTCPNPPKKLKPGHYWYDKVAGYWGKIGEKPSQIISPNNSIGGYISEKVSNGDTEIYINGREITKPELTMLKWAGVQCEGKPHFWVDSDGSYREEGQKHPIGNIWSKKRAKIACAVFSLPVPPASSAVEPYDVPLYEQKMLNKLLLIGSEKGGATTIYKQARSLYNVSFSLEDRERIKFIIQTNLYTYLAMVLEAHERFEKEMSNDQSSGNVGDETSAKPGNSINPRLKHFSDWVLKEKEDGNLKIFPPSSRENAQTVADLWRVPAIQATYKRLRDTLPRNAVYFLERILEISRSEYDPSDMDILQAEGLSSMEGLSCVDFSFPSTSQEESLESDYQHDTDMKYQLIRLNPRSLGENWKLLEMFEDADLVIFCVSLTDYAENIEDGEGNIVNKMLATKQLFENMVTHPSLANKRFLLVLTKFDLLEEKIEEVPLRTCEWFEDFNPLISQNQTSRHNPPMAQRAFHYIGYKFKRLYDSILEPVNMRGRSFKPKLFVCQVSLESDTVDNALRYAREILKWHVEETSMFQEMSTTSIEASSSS
As to the kind of experiment: affinity purification with mass spectrometry.

The values below come from publication doi:10.1101/2021.10.08.463358.

Results are given in words; binding and its absence hold for the method and conditions named. In cells and extracts the contact can be indirect. A yes stands for co-enrichment or nearness to the bait. Other partners may have been found.

B1: PLANT U-BOX 4 (PUB4) (enzyme, UniProt O22193 1-826)
chain: MEVLLRSISSFLNLSSSKHIDLDPFEKYYKRVEELLRVLKPIADVVVTSDFVFDEKLGKAFEELTQDVDQSIDLFRSWQAFSSKVYFVLQIESLLPKMRDTIVDTFQFLMSSKNHLPDELSPASLEQCLEKIKHLSYEEISSVIDGALRDQRDGVGPSPEILVKIGENTGLRSNQEILIEAVALERQKEMAEQSENNAEVEFLDQLIVIVNRMHERLLLIKQTQTSSVAILADFFCPLSLEVMTDPVIVSSGQTYEKAFIKRWIDLGLKVCPKTRQTLTHTTLIPNYTVKALIANWCETNDVKLPDPNKSTSLNELSPLLSCTDSIPSTGADVSARKVSNKSHDWDASSSETGKPSFSSRATEREGASPSRPASALGASSPGISGNGYGLDARRGSLNDFEDRSNDSRELRTDAPGRSSVSSTTRGSVENGQTSENHHHRSPSATSTVSNEEFPRADANENSEESAHATPYSSDASGEIRSGPLAATTSAATRRDLSDFSPKFMDRRTRGQFWRRPSERLGSRIVSAPSNETRRDLSEVETQVKKLVEELKSSSLDTQRQATAELRLLAKHNMDNRIVIGNSGAIVLLVELLYSTDSATQENAVTALLNLSINDNNKKAIADAGAIEPLIHVLENGSSEAKENSAATLFSLSVIEENKIKIGQSGAIGPLVDLLGNGTPRGKKDAATALFNLSIHQENKAMIVQSGAVRYLIDLMDPAAGMVDKAVAVLANLATIPEGRNAIGQEGGIPLLVEVVELGSARGKENAAAALLQLSTNSGRFCNMVLQEGAVPPLVALSQSGTPRAREKAQALLSYFRNQRHGNAGRG
In the case of B1, the binding result in assay [1] and in assay [2] was “binds” each time.

B2: PLANT U-BOX 2 (PUB2) (enzyme, UniProt Q5XEZ8 1-707)
chain: MMVHMEVSWLRVLLDNISSYLSLSSMDDLSSNPAHKYYTRGEDIGKLIKPVLENLIDSDAAPSELLNNGFEELAQYVDELREQFQSWQPLSTRIFYVLRIESLASKLRESSLEVFQLLKHCEQHLPADLISPSFEECIELVKLVARDEISYTIDQALKDQKKGVGPTSEVLVKIAESTGLRSNQEILVEGVVLTNMKEDAELTDNDTEAEYLDGLISLTTQMHEYLSDIKQAQLRCPVRVPSDFRCSLSLELMTDPVIVASGQTFERVFIQKWIDMGLMVCPKTRQALSHTTLTPNFIVRAFLASWCETNNVYPPDPLELIHSSEPFPLLVESVRASSSENGHSESLDAEELRQVFSRSASAPGIVSEVVCKTKRNNNAAADRSLTRSNTPWKFPEERHWRHPGIIPATVRETGSSSSIETEVKKLIDDLKSSSLDTQREATARIRILARNSTDNRIVIARCEAIPSLVSLLYSTDERIQADAVTCLLNLSINDNNKSLIAESGAIVPLIHVLKTGYLEEAKANSAATLFSLSVIEEYKTEIGEAGAIEPLVDLLGSGSLSGKKDAATALFNLSIHHENKTKVIEAGAVRYLVELMDPAFGMVEKAVVVLANLATVREGKIAIGEEGGIPVLVEVVELGSARGKENATAALLQLCTHSPKFCNNVIREGVIPPLVALTKSGTARGKEKAQNLLKYFKAHRQSNQRRG
As for B2, the binding result in assay [1] and in assay [2] was “binds” in each case.
